Laboratory results from PubChem BioAssay (NCATS).
The inconclusive results got no clear call from the source; some entries with a clear call stand among them for comparison. Where the call is inconclusive, the potency comes from a doubtful curve fit. Active and inactive are the calls of the source. The call rests on the fitted dose curve; in most records, active means well fitted curve in the direction sought with a large enough effect; inconclusive means small, poorly fitted or top-dose-only effect, or another doubt; inactive means no such curve, though single readings can be large; an effect the other way counts as inactive or inconclusive.

Assay: Quantitative highthroughput screen to assess conditional lethalithy of SEM cells grown in RPMI1640 with dialyzed fetal bovine serum (RPMI+ds) (AID 1963884); further: nearly all actives have a fitted effect of over 35% in size
Conditions: SEM B-ALL cells, RPMI+dialyzed FBS, CellTiter-Glo viability, 48 h; viability: at 45.8 µM (top of the series)
Method in brief: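 Each medium arm—HPLM with 10% dialyzed FBS, or RPMI1640 with 5 mM glucose and 10% untreated or dialyzed FBS—was screened against an 11-point, 3-fold compound titration for 48 h at 37 °C, with CellTiter-Glo luminescence as endpoint.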
Potency means the concentration at half of the fitted maximal effect.

SMILES	Potency
Nc1ccccc1NC(=O)c1ccc(CNC(=O)OCc2cccnc2)cc1	active: 743 nM
O=C(O)CCCc1c[nH]c2ccccc12	inactive
Cc1cnc(Nc2ccc(F)cc2Cl)nc1-c1c[nH]c(C(=O)N[C@H](CO)c2cccc(Cl)c2)c1	inconclusive: 18700 nM [cytotoxic, partial curve]
CC(C)c1onc(-c2c(Cl)cccc2Cl)c1COc1ccc(C=Cc2cccc(C(=O)O)c2)c(Cl)c1	inactive
CN[C@H]1[C@@H](O)[C@@H]2O[C@@H]3O[C@H](C)CC(=O)[C@]3(O)O[C@@H]2[C@@H](NC)[C@H]1O	inactive
CCCCCOC(=O)Nc1nc(=O)n([C@@H]2O[C@H](C)[C@@H](O)C2O)cc1F (stereo partly drawn)	inactive
O=C(C=Cc1c(C(=O)O)[nH]c2cc(Cl)cc(Cl)c12)Nc1ccccc1	inconclusive: 37200 nM [cytotoxic, single point]
O=C(O)c1ccccc1C(=O)Nc1ccc(-c2ccccc2)cc1	inconclusive: 1.2 nM [rising, full curve]
COC(=O)[C@@H]1CC2=CC(=O)CC[C@]2(C)[C@@]23O[C@@H]2C[C@@]2(C)[C@H](CC[C@@]24CCC(=O)O4)[C@@H]13	inactive
CC(C)=CCCC(C)=CCCC(C)=CCCC(C)=CCCC(C)=CCCC(C)=CCCC(C)=CCCC(C)=CCCC(C)=CCO	inconclusive: 935 nM [cytotoxic, full curve, poor fit]

Assay: Cellular viability qHTS for adrenocortical cancer (ACC) cell line SW-13 (AID 1963989); further: nearly all actives have a fitted effect of over 65% in size
Conditions: SW-13 ACC cells viability, CellTiter-Glo, 48 h; activity (max response): hits give low values
Method in brief: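 Here, serum-free SW-13 cultures were dosed up to 46 uM. Following 48 h, ATP-dependent luminescence (CellTiter-Glo) reported viable cells, and logistic modeling produced IC50 values.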

SMILES	Potency
CN1CCN(c2cccc(Nc3nc4c(-c5ccc(S(C)(=O)=O)cc5)cccn4n3)c2)CC1	inconclusive: 22.4 µM [cytotoxic, partial curve]
Nc1nc(Nc2ccc(S(N)(=O)=O)cc2)nn1C(=O)c1c(F)cccc1F	active: 3.55 µM
O=C1NCCc2[nH]c(-c3ccncc3)cc21	active: 7.94 µM
O=C1Cc2cc(CCN3CCN(c4nsc5ccccc45)CC3)c(Cl)cc2N1	inconclusive: 18.4 µM [cytotoxic, single point]

Assay: Cellular viability qHTS for adrenocortical cancer (ACC) cell line NCI-H295R (AID 1963990); further: nearly all actives have a fitted effect of over 60% in size
Conditions: CellTiter-Glo ATP luminescence, 48 h; series mostly up to 46.1 µM
Method in brief: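 Viability of NCI-H295R after 48 h of treatment (final up to 46 uM) measured through cellular ATP luminescence.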

SMILES	Potency
CN1CCN(c2cccc(Nc3nc4c(-c5ccc(S(C)(=O)=O)cc5)cccn4n3)c2)CC1	inconclusive: 31.6 µM [cytotoxic, single point]
Cc1cnc(Nc2ccc(F)cc2Cl)nc1-c1c[nH]c(C(=O)N[C@H](CO)c2cccc(Cl)c2)c1	active: 14.1 µM
Nc1ncnc2c1ncn2[C@@H]1O[C@H](CO)[C@@H](O)[C@@H]1O	inconclusive: 28.2 µM [cytotoxic, single point]
O=C1Cc2cc(CCN3CCN(c4nsc5ccccc45)CC3)c(Cl)cc2N1	inconclusive: 20.6 µM [cytotoxic, single point]
